{
  "source": "PubChem BioAssay AID504444",
  "about": "(National Center for Advancing Translational Sciences (NCATS), 2011)",
  "note": "The whole screen tested about 360,000 compounds, of which about 7,500 (2.1%) were called active. Inconclusive means that the source gave no clear call. Such entries were picked first, then a sample of the others. Calls follow the shape of the dose curve; as a rule, active = well fitted inhibition curve with a large enough effect; inconclusive = small, poorly fitted or top-dose-only effect, or effect the other way; inactive = flat fitted curve, though single readings scatter. A potency beside an inconclusive call is a rough fit, not a confirmed value. % is scaled to controls: 0 for no effect and ±100 for the full control effect; potency is read from the fitted curve at half-maximal effect.",
  "data": [
    {"test": "Nrf2 qHTS screen for inhibitors; also: nearly all actives have a fitted effect of over 60% in size", "details": "A549 ARE-Fluc reporter, luciferase luminescence, 18-24 h; activity change, negative = inhibition: at 46 µM (top of the series)", "procedure,_shortened": "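A549 ARE_Fluc cells (5000/well, 5% FBS OPTI-MEM) pre-incubated 2 h, then treated with compounds 18-24 h at 37C/5% CO2 in concentration-response. CellTiter-Fluor viability read first; BugLite luciferase luminescence after 15 min at room temperature gives Nrf2 activity.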", "values": [
      {"smiles": "Cc1c(N)cccc1N", "activity change, negative = inhibition": "inactive: 5.59%"},
      {"smiles": "CCCCC(=O)NNC(=S)NC(=O)CCC", "Potency": "inconclusive: 10.3 µM [falling, partial curve, poor fit]"},
      {"smiles": "S=c1[nH]nc(-c2ccco2)n1/N=C/c1cccc(Cl)c1Cl", "activity change, negative = inhibition": "inactive: 2.93%"},
      {"smiles": "Cc1cccc(C(C)C)c1NC(=O)C1CCCN1S(=O)(=O)c1cccc2nsnc12", "note": "(stereo not given)", "Potency": "inconclusive: 25.9 µM [falling, partial curve, poor fit]"},
      {"smiles": "Cc1c(C(c2ccccc2)c2c(C)n(C)n(-c3ccccc3)c2=O)c(=O)n(-c2ccccc2)n1C", "Potency": "inconclusive: 18.4 µM [falling, partial curve, poor fit]"},
      {"smiles": "C=CCn1cc(F)c(=O)n(CC=C)c1=O", "activity change, negative = inhibition": "inactive: 16.9%"},
      {"smiles": "CCC1CN(C(=O)N2CCC(C(=O)NCCc3ccccc3Cl)CC2)c2cc(C)ccc2O1", "note": "(stereo not given)", "Potency": "inconclusive: 20.6 µM [falling, single point]"},
      {"smiles": "O=C(Nc1ncccn1)c1cc([N+](=O)[O-])cc([N+](=O)[O-])c1", "activity change, negative = inhibition": "inactive: -2.56%"},
      {"smiles": "S=c1[nH]nc(-c2cc(-c3ccccc3)n[nH]2)n1/N=C/c1ccccc1", "activity change, negative = inhibition": "inactive: -9.5%"},
      {"smiles": "CCCC(O)c1nc2ccccc2n1Cc1ccccc1OC", "note": "(stereo not given)", "activity change, negative = inhibition": "inactive: 16.9%"},
      {"smiles": "COc1cc(NC(=O)CN2c3ccccc3S(=O)(=O)c3ccccc32)cc(OC)c1", "Potency": "inconclusive: 20.6 µM [falling, single point]"},
      {"smiles": "CN(C)S(=O)(=O)c1ccc(C(=O)Nc2nnc(SCC(=O)NCC3CCCO3)s2)cc1", "note": "(stereo not given)", "Potency": "inconclusive: 11.6 µM [falling, partial curve]"},
      {"smiles": "Cc1ccccc1CNc1ccc(C(CC(N)=O)NC(=O)c2ccccc2)cc1[N+](=O)[O-]", "note": "(stereo not given)", "Potency": "inconclusive: 14.6 µM [falling, partial curve]"},
      {"smiles": "CCOc1c(C)cc(-c2ncccc2O)cc1C", "Potency": "inactive"},
      {"smiles": "CCn1c(COc2cccc3ccccc23)nnc1SCC(=O)OC1CCCCC1", "Potency": "inconclusive: 32.6 µM [falling, partial curve, poor fit]"},
      {"smiles": "Cc1ccccc1C(=O)NC1CCN(CC(=O)Nc2ccc(Br)cc2)CC1", "Potency": "inconclusive: 16.4 µM [activator, partial curve, poor fit]"},
      {"smiles": "Cc1cccnc1NC(=S)Nc1ncccc1C", "Potency": "inconclusive: 10.3 µM [activator, partial curve]"},
      {"smiles": "CCN(CC1COc2ccccc2O1)S(=O)(=O)c1ccc(C)cc1", "note": "(stereo not given)", "Potency": "inconclusive: 18.4 µM [falling, single point]"},
      {"smiles": "COc1ccccc1CNC(=O)C(=O)NCC1OCCN1S(=O)(=O)c1ccc(Br)cc1", "note": "(stereo not given)", "Potency": "inconclusive: 29.1 µM [falling, single point]"},
      {"smiles": "COc1cccc(CN(CCC(C)C)S(=O)(=O)c2cc(Br)ccc2Br)c1", "Potency": "inconclusive: 3.66 µM [falling, partial curve, poor fit]"},
      {"smiles": "NC1=NC(=O)/C(=C/c2cn(Cc3ccccc3)c3ccccc23)S1", "Potency": "inconclusive: 18.4 µM [falling, single point]"},
      {"smiles": "CC(=O)Nc1ccc(NC(=O)Cc2sc(-c3cccnc3)nc2-c2ccc(C)cc2)cc1", "Potency": "inconclusive: 16.4 µM [falling, partial curve, poor fit]"},
      {"smiles": "CC(=O)Nc1cc(C(N)=O)c(Cl)cc1Cl", "Potency": "inconclusive: 0.651 µM [falling, full curve, poor fit]"},
      {"smiles": "Cc1ccc(CN(C(=O)c2ccccc2)c2ccccn2)o1", "activity change, negative = inhibition": "inactive: -14.3%"},
      {"smiles": "Oc1ccc(-c2cn3ccccc3n2)cc1O", "activity change, negative = inhibition": "inactive: -6.55%"},
      {"smiles": "CC1=Nc2cc(C(=O)NCCCOC(C)C)ccc2Sc2ccccc21", "activity change, negative = inhibition": "inactive: 6.69%"},
      {"smiles": "O=S(=O)(CCN1CCOCC1)c1ccc(Oc2ccc(S(=O)(=O)CCN3CCOCC3)cc2)cc1", "Potency": "inconclusive: 11.6 µM [falling, partial curve]"},
      {"smiles": "COc1ccc(-c2nnc(SCC(=O)N(Cc3ccccc3)C(C)(C)C)o2)cc1OC", "Potency": "active: 23.1 µM"},
      {"smiles": "CNc1ccccc1C(C)(C)c1cc(-c2cccc(Br)c2)no1", "Potency": "inconclusive: 29.1 µM [falling, single point]"},
      {"smiles": "COC(=O)[C@@]12CCCCN1[C@H](c1ccc(-c3ccc(F)cc3)cc1)[C@@H]1C(=O)N(C)C(=O)[C@@H]12", "Potency": "inconclusive: 23.1 µM [falling, partial curve, poor fit]"},
      {"smiles": "COc1ccc(N=C(C)C2=C(O)c3ccccc3C2=O)cc1", "Potency": "inconclusive: 0.231 µM [activator, full curve, poor fit]"},
      {"smiles": "COCCNCC(=O)C12CC3CC(CC(C3)C1)C2", "Potency": "inconclusive: 0.103 µM [falling, partial curve, poor fit]"},
      {"smiles": "Cc1ccc(-c2csc(NC(=O)C3CC(=O)N(c4ccc5c(c4)OCCO5)C3)n2)o1", "note": "(stereo not given)", "Potency": "inconclusive: 13 µM [falling, partial curve, poor fit]"},
      {"smiles": "Cc1cc(C(=O)N2CCCC(C(=O)c3cccc(C(F)(F)F)c3)C2)n[nH]1", "note": "(stereo not given)", "Potency": "active: 18.4 µM"},
      {"smiles": "Cc1cc2oc(=O)cc(CN3CCC(C)CC3)c2c(C)c1Cl", "Potency": "inconclusive: 0.58 µM [activator, full curve]"},
      {"smiles": "O=c1oc2ccccc2cc1-c1cn(-c2ccccc2)c(=S)[nH]1", "Potency": "inconclusive: 0.0517 µM [activator, full curve, poor fit]"},
      {"smiles": "N#CC1=C2SCC(O)(c3ccccc3)N2C(=O)CC1c1ccccc1F", "note": "(stereo not given)", "Potency": "active: 10.3 µM"},
      {"smiles": "O=C(O)c1ccc(-n2cccn2)c([N+](=O)[O-])c1", "activity change, negative = inhibition": "inactive: -2.62%"},
      {"smiles": "COc1ccc2nc(NC(=O)CSCC(=O)Nc3cc(C)on3)sc2c1", "Potency": "inconclusive: 20.6 µM [activator, partial curve]"},
      {"smiles": "O=C(CSc1nnc(-c2cc3ccccc3cc2O)n1Cc1ccco1)N1CCc2ccccc2C1", "Potency": "inconclusive: 29.1 µM [falling, single point]"},
      {"smiles": "O=C(O)CCSc1nnc(-c2ccc3c(c2)OCO3)o1", "Potency": "active: 8.2 µM"},
      {"smiles": "O=C1CN(C(=O)c2cccc(Br)c2)c2ccccc2N1", "Potency": "inconclusive: 0.82 µM [falling, full curve, poor fit]"},
      {"smiles": "CC(C)CCSc1nc2ccccc2[nH]1", "Potency": "inconclusive: 3.66 µM [activator, partial curve]"},
      {"smiles": "Cc1ccc(C(=O)OCC(=O)N2CCNC2=O)c(C)c1", "Potency": "inconclusive: 4.11 µM [activator, full curve]"},
      {"smiles": "Cc1ccc(OCC(=O)Nc2nnc(S(=O)(=O)N3c4ccccc4CC3C)s2)cc1", "note": "(stereo not given)", "activity change, negative = inhibition": "inactive: 28.4%"},
      {"smiles": "COc1ccc(CNC(=S)NCc2ccc(OC(C)C)cc2)cc1", "activity change, negative = inhibition": "inactive: 4.51%"},
      {"smiles": "CCOc1cc(C(=O)Nc2ccccc2F)cc(Br)c1OCC", "Potency": "inconclusive: 9.2 µM [falling, partial curve, poor fit]"},
      {"smiles": "CC(=O)N1CCc2nc3sc(C(=O)c4ccc(F)cc4)c(N)c3c(C(F)(F)F)c2C1", "Potency": "inconclusive: 16.4 µM [falling, single point]"},
      {"smiles": "Cc1oc2nc(SCC(=O)NC3CCCCC3)nc(N)c2c1C", "Potency": "inconclusive: 13 µM [falling, partial curve, poor fit]"},
      {"smiles": "Cc1ccc(Nc2nc(N)nc(CN3CCN(Cc4ccc5c(c4)OCO5)CC3)n2)cc1Cl", "activity change, negative = inhibition": "inactive: -1.46%"},
      {"smiles": "O=C(NCCc1ccccc1)C1=COCCO1", "Potency": "inconclusive: 7.31 µM [activator, partial curve]"},
      {"smiles": "Cc1cc(N2CCOCC2)n2nc(C)c(-c3ccccc3Cl)c2n1", "Potency": "active: 16.4 µM"},
      {"smiles": "Cc1sc(NC(=O)COc2cccc(-n3cnnn3)c2)c(C#N)c1C", "Potency": "inconclusive: 10.3 µM [falling, partial curve, poor fit]"},
      {"smiles": "O=C(c1cccc(Cl)c1)N1CCN(c2ccccn2)CC1", "activity change, negative = inhibition": "inactive: -9.19%"},
      {"smiles": "COc1cc(C(=O)OC(C)C(=O)NC2CCCCC2C)c([N+](=O)[O-])cc1OC", "note": "(stereo not given)", "Potency": "inconclusive: 9.2 µM [falling, partial curve, poor fit]"},
      {"smiles": "CC(=O)c1cccc(NC(=O)c2nc(-c3ccccc3)n(-c3cccc(Cl)c3)n2)c1", "Potency": "inconclusive: 25.9 µM [falling, single point]"},
      {"smiles": "CCn1c(SCC(=O)N(C)c2ccccc2)nc2c([nH]c3ccccc32)c1=O", "Potency": "inconclusive: 2.59 µM [falling, single point]"},
      {"smiles": "CCc1ccc(NC(=O)C(=O)NCC(c2cccnc2)N2CCN(c3ccc(F)cc3)CC2)cc1", "note": "(stereo not given)", "activity change, negative = inhibition": "inactive: -10.1%"},
      {"smiles": "CCOc1ccc(NS(=O)(=O)c2ccc3c(c2)n(C)c(=O)n3C)cc1", "Potency": "inconclusive: 11.6 µM [falling, partial curve]"},
      {"smiles": "COc1ccc(CCC(=O)N2CCN(S(=O)(=O)c3ccc(OC)cc3)CC2)cc1", "Potency": "inconclusive: 2.91 µM [falling, full curve, poor fit]"},
      {"smiles": "Cc1ccc(NC(=O)CN2CCN(C(=O)c3ccco3)CC2)cc1", "activity change, negative = inhibition": "inactive: 1.57%"},
      {"smiles": "Cc1cccc(Nc2nnc(SCC(=O)c3ccc(Br)s3)s2)c1C", "Potency": "inconclusive: 32.6 µM [falling, single point]"},
      {"smiles": "CCOc1ccccc1CNc1ccc2cc(S(=O)(=O)N3CCC(C)CC3)ccc2n1", "Potency": "inconclusive: 23.1 µM [falling, single point]"},
      {"smiles": "COc1cccc(C2=CC(=O)C[C@H](c3ccc(OC)c(OC)c3)C2)c1", "Potency": "inconclusive: 11.6 µM [falling, partial curve]"},
      {"smiles": "Cc1cccc(N/N=C/c2ccncc2)c1", "Potency": "inconclusive: 7.31 µM [activator, partial curve]"},
      {"smiles": "CN1/C(=C/C(=S)NC(=O)C2(C)CC2(Cl)Cl)C(C)(C)c2ccccc21", "note": "(stereo not given)", "Potency": "inconclusive: 25.9 µM [falling, single point]"},
      {"smiles": "O=[N+]([O-])c1ccc2oc(C3CCCCC3)nc2c1", "Potency": "inconclusive: 29.1 µM [activator, single point]"},
      {"smiles": "COc1ccc(C(=O)CCN2CCN(c3ccccc3OC)CC2)cc1", "activity change, negative = inhibition": "inactive: 6.13%"},
      {"smiles": "CCOc1ccccc1NC(=O)c1ccc2c(Cl)c3c(nc2c1)CCC3", "Potency": "inconclusive: 9.2 µM [activator, partial curve]"},
      {"smiles": "CC1=CC(=C2C(=O)c3ccccc3C2=O)C=C(C)N1C", "activity change, negative = inhibition": "inactive: 10.5%"}
    ]}
  ]
}
